Measurements reported in PMC6134199.
Construct, isoform or probe ends are uncertain for at least one entry. For some assays here: Negatives hold for the conditions tested. For some assays here: Protein sequences can lack the tags named with them.

Amino acid sequences for entries named in this document (tags omitted). A change or cut given only in a name is not applied to a line headed by its entry.
UniProt P76086: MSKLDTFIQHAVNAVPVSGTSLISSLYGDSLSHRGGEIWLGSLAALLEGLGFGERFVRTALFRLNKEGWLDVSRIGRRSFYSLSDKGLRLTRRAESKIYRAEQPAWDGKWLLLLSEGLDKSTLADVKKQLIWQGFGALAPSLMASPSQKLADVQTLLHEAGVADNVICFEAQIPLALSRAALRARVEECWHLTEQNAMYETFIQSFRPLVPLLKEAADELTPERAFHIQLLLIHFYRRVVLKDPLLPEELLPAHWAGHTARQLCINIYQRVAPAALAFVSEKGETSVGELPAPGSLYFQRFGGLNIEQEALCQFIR
UniProt P75811: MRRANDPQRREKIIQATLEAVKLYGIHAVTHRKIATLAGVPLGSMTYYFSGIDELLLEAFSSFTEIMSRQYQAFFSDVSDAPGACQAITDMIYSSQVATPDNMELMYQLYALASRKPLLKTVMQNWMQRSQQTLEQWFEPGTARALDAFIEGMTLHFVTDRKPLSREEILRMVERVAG

Assays:
Experiment in all cases: EMSA
[1] = biological target: T1, CadC (Escherichia coli K-12 W3110 type A) (UniProt P23890); conditions: 0.5 pmol each FITC probe + 20 pmol TF (Fig 4: 0-8 pmol) in 10 ul DNA-binding buffer (composition not given, ref 38), 37 C, 20 min, PAGE with mixed probes; recombinant protein; protein details: His; label: FITC
T1 sequence (looked up, limits assumed): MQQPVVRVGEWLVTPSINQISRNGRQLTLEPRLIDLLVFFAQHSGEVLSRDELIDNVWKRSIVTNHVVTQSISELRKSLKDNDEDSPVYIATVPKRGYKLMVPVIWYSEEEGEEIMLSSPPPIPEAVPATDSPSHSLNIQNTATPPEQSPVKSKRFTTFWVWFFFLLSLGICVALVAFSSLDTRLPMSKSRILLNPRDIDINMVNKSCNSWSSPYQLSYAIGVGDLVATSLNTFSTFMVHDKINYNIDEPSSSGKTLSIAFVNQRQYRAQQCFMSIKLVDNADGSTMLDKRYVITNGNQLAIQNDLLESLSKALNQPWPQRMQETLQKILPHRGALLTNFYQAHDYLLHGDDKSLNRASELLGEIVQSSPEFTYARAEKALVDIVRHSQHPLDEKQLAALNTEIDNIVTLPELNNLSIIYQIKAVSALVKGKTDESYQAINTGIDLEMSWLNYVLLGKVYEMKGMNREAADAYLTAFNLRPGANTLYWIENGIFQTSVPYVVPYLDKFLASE

[2] = biological target: T2, Cra (Escherichia coli K-12 W3110 type A) (UniProt P0ACP1); conditions: 0.5 pmol each FITC probe + 20 pmol TF (Fig 4: 0-8 pmol) in 10 ul DNA-binding buffer (composition not given, ref 38), 37 C, 20 min, PAGE with mixed probes; recombinant protein; protein details: His; label: FITC
T2 sequence (looked up, limits assumed): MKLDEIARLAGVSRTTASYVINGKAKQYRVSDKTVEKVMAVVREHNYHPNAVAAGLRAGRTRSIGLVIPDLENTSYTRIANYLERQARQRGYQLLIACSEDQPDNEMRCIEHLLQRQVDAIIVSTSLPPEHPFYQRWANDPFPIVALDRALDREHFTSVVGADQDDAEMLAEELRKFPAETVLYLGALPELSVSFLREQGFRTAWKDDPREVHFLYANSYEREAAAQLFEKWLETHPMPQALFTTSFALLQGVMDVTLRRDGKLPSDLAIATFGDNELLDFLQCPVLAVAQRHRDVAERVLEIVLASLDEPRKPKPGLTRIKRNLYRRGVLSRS

[3] = biological target: T3, DsdC (Escherichia coli K-12 W3110 type A) (UniProt P46068); conditions: 0.5 pmol each FITC probe + 20 pmol TF (Fig 4: 0-8 pmol) in 10 ul DNA-binding buffer (composition not given, ref 38), 37 C, 20 min, PAGE with mixed probes; recombinant protein; protein details: His; label: FITC
T3 sequence (looked up, limits assumed): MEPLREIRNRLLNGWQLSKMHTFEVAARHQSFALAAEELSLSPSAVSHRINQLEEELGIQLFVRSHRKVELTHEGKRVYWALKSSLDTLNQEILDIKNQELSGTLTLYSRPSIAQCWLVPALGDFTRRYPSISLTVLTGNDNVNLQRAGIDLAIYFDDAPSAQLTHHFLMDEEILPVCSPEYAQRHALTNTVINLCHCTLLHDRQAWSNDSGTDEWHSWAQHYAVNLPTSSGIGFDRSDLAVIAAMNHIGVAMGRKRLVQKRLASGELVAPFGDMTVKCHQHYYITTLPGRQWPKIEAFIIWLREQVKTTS

[4] = biological target: PaaX (Escherichia coli K-12 W3110 type A) (UniProt P76086); conditions: 0.5 pmol each FITC probe + 20 pmol TF (Fig 4: 0-8 pmol) in 10 ul DNA-binding buffer (composition not given, ref 38), 37 C, 20 min, PAGE with mixed probes; recombinant protein; protein details: His; label: FITC
[5] = biological target: T4, QseF (Escherichia coli K-12 W3110 type A) (UniProt P0AFU4); conditions: 0.5 pmol each FITC probe + 20 pmol TF (Fig 4: 0-8 pmol) in 10 ul DNA-binding buffer (composition not given, ref 38), 37 C, 20 min, PAGE with mixed probes; recombinant protein; protein details: His; label: FITC
T4 sequence (looked up, limits assumed): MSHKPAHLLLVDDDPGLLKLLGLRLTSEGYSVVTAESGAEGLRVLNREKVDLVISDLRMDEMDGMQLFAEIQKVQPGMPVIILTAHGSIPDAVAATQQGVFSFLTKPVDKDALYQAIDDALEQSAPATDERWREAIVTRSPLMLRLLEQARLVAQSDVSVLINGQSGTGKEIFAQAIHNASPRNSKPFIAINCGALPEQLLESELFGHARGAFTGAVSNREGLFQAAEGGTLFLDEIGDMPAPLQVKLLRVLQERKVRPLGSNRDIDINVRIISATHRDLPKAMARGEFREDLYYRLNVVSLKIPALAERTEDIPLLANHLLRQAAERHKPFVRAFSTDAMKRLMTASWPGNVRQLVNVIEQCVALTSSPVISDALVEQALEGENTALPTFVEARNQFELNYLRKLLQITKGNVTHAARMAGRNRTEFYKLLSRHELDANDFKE

[6] = biological target: RcdA (Escherichia coli K-12 W3110 type A) (UniProt P75811); conditions: 0.5 pmol each FITC probe + 20 pmol TF (Fig 4: 0-8 pmol) in 10 ul DNA-binding buffer (composition not given, ref 38), 37 C, 20 min, PAGE with mixed probes, recombinant protein, protein details: His, label: FITC
[7] = biological target: T5, UlaR (Escherichia coli K-12 W3110 type A) (UniProt P0A9W0); conditions: 0.5 pmol each FITC probe + 20 pmol TF (Fig 4: 0-8 pmol) in 10 ul DNA-binding buffer (composition not given, ref 38), 37 C, 20 min, PAGE with mixed probes; recombinant protein; protein details: His; label: FITC
T5 sequence (looked up, limits assumed): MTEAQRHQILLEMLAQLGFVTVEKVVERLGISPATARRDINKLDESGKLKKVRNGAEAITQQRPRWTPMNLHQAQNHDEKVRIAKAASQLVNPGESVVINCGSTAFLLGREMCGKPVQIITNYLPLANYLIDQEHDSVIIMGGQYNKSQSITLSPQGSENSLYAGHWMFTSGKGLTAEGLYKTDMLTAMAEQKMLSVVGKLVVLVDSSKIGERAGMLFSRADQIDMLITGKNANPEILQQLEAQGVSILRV

[8] = biological target: T6, UxuR (Escherichia coli K-12 W3110 type A) (UniProt P39161); conditions: 0.5 pmol each FITC probe + 20 pmol TF (Fig 4: 0-8 pmol) in 10 ul DNA-binding buffer (composition not given, ref 38), 37 C, 20 min, PAGE with mixed probes; recombinant protein; protein details: His; label: FITC
T6 sequence (looked up, limits assumed): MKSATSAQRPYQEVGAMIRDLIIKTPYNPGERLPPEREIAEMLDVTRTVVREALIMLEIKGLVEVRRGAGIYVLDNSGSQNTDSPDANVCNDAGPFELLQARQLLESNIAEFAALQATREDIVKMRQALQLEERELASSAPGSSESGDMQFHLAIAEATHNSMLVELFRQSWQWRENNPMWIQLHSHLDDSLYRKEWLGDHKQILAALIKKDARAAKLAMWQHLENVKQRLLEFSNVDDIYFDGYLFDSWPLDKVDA

[9] = biological target: T7, YijO (Escherichia coli K-12 W3110 type A) (UniProt P32677); conditions: 0.5 pmol each FITC probe + 20 pmol TF (Fig 4: 0-8 pmol) in 10 ul DNA-binding buffer (composition not given, ref 38), 37 C, 20 min, PAGE with mixed probes; recombinant protein; protein details: His; label: FITC
T7 sequence (looked up, limits assumed): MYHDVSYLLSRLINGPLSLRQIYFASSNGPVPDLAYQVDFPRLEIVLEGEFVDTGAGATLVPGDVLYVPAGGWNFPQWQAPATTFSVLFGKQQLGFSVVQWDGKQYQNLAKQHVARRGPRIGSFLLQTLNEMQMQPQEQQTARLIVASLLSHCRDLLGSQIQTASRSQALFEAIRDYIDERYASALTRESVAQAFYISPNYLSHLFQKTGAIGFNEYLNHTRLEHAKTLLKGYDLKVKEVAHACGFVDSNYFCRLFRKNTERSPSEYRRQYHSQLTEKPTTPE

[10] = 10 mM acetate, increased binding

Sequence | binding result [1] | binding result [2] | binding result [3] | binding result [4] | binding result [5] | binding result [6, 10] | binding result ([6]; no effector) | binding result [7] | binding result [8] | binding result [9]
ATTATAAAGATTTGTAAATATAACCGTCTCCGGTATGTTGCCTGAGGCGGTTTTTTTGTCTCTAACGTGCGGAAAAATTTGTTCCTCTTCACATTTTTTGTACAACCGACATGCCCGTGTAGCTCACAAATATGACAGTGGCGTGAATTTTGCGCATTGACGGCAGTTATGATTCGCGGTATTGCTTAACTGTGATTGCACATTTAGTAATCACTGTTTTCTTTTCCACCAGAAACCAGTATGAGGGAAACGAGGC (double strand) [rmf promoter probe (256 bp)] | binds | binds | no binding | no binding | binds | binds | binds | binds | binds | binds
CGTACCGACCCCATATCGTGACGCCGCTGCTGTTGTACTAACCAAACAGGTTCCCCCTGCCATTCGCCGATTTGTAGTGCGCGCTGACCCACAAGATCGAAATTTGCCGCTTCGCCATATGGCAATTCTCCCTTCGGCAACCATAATTTTTGTTCATGGCTGACGACCCACCAGCCGTGATCTAATTTTTCAATTATACGATCCATAGCTCTTGCACTACCTTTGCATCACTGGCATGTTTAACATGGTTTTTACATTTCTCACTGAGCAGTTTTTGAATACAAACTTGCGGAGTCAATC (double strand) [rsd promoter probe (300 bp)] | binds | binds | binds | binds | no binding | binds | binds | binds | no binding | no binding
